This is an account of results in publication PMC6024076, “mRNA Deadenylation Is Coupled to Translation Rates by the Differential Activities of Ccr4-Not Nucleases”.

These are yes or no findings as the source states them, for the method shown. Some binding calls cover weakened binding; strength is not graded here. Tags and fused reporters may be left off the sequences shown.

In the assay the target is T1, S. pombe Caf1 with Strep II tag, expressed in Sf9 (subunit of the Caf1-Ccr4 heterodimer) (S. pombe) (UniProt O74856).
T1 sequence: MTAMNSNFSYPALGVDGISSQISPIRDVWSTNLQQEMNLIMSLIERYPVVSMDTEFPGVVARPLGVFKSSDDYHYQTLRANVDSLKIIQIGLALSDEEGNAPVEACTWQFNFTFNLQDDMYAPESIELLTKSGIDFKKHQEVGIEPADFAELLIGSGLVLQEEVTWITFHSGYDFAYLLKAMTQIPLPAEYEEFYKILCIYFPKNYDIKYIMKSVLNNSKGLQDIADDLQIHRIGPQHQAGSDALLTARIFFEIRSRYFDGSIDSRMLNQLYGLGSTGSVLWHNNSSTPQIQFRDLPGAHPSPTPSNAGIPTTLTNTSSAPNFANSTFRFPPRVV
Put plainly: co-purification (Strep II affinity capture, HiTrap Q anion exchange, Superdex 200 SEC); captured from Sf9 lysate by the Strep II tag on Caf1; separated from Ccr4-Not on HiTrap Q; SEC in 20 mM HEPES pH 7.4, 50 mM NaCl, 0.1 mM TCEP.

B1: S. pombe Ccr4, expressed in Sf9 (subunit of the Caf1-Ccr4 heterodimer) (enzyme, UniProt O74874 1-690)
chain: MFNPRYTQGTIYPGAHPGLLTPDHQHAAILSVQNSPALENSNISEHWKQQIALATQSRSFSSPHQRAHNAAALARSGGPGFSMNYNARTGAFTGGPNAAGLSSLGGKYNTSSTTTTLTTSTTLNTSSGTTLNSTSKTTTSSVAVDDQKSKSDSKKERRDWTCLDLGGIGLRNVSTDLFKFSFLTELYINHNNLTRLPPEIGKLKNLVILDASGNSIKTIPPELGLLTELREVLLFDNMISVIPAELGTLFQLKILGIEGNPLQDVYKNQIMESGTAGLIAALRDGCPVGPPPPERGWEKLVSDDDDDVNDNVSTSVRDLTAADSNKPSTTSKNLKFTIMSYNVLCERYATSTLYGYTPSWALSWSYRKDLIMQELGGYNADIICLQEVDVENYDTFFAPQMSLKGYKGVHFPKSRVRTMNEVERRIVDGCATFFKTSKYVMHEKMVIEYNQAPSLRRQDIKLTSNMYNRVMTKDNISVITLLENKENGSRLIVANCHIHWDPQFRDVKVIQVAMLMDEIAQVATKFRNMPSKIPSDQLKDERPTYPEYLKIPILICGDFNSVQGSGVYDFLSSGSISQNHEDFMNNDYGEYTVNGRSHAFNLKSAYGESEALSFTNYTPGFKGAIDHIWYTGNSLEVTGLLKGVDKDYLSGVVGFPNAHFPSDHICLLAEFKVKQEKTPLPSSKFNNDKK
As for B1, the binding entry is listed as “binds”.
